Results are given in words; binding and its absence hold for the method and conditions named. In cells and extracts the contact can be indirect. Some entries that bind do so weakly or less than the wild type. Sequences can lack the tags named with a protein.
Assays:
Assay in all cases: co-IP; competitive co-IP: 293T cells cotransfected with pCAGGS-HA-NSE4 and pFlag-SMC5, pFlag-NSE1 or pFlag-NSE3, with or without tag-free pcDNA3.1-PJA1ΔR (0.5 μg) or pcDNA3.1-PJA1BΔR (0, 0.5, 1.5 μg); RIPA lysis buffer; blots with anti-HA or anti-Flag
Flag-NSE3 (human) = biological target: T1, Flag-NSE3 (human) (UniProt Q96MG7)
T1 sequence: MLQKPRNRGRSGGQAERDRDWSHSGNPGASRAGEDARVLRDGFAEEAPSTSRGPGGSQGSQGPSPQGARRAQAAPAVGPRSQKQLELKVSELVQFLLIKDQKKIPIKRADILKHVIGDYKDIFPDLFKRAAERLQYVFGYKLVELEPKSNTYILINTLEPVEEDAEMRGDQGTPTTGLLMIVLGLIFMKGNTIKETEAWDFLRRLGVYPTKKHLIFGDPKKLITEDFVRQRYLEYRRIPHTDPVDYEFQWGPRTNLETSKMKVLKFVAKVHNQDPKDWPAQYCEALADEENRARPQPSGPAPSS

Sequences of proteins named here, by UniProt entry; tags and fusion partners are left off.
UniProt Q8IY18: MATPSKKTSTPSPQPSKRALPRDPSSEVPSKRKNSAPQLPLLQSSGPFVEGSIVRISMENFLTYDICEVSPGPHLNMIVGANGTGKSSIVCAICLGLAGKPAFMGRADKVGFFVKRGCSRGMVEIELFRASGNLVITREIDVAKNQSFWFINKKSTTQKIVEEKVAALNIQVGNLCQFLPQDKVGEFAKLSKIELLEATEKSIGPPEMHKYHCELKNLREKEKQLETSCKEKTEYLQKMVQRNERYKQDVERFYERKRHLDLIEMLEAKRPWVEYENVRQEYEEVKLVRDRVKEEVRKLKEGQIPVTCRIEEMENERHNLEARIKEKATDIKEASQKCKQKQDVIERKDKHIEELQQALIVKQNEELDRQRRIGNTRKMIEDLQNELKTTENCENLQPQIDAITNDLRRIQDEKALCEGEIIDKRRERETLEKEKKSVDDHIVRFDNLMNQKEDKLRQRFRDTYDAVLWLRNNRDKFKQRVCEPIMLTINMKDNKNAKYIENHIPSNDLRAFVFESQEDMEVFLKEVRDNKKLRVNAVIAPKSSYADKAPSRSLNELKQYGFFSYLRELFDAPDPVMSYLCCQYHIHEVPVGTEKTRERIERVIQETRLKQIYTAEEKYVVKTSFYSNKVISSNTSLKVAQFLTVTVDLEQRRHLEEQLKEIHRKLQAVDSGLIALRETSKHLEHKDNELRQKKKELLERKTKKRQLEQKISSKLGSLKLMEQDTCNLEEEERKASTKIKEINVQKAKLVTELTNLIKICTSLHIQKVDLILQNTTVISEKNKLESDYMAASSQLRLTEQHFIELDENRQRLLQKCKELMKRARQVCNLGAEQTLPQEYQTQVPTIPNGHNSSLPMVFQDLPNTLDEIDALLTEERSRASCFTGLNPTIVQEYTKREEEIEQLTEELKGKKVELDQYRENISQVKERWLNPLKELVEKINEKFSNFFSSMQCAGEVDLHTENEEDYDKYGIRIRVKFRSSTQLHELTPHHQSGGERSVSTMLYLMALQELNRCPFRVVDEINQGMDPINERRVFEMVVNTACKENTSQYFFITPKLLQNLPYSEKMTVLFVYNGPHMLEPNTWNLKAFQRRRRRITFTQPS

Flag-NSE1 (human) = biological target: T2, Flag-NSE1 (human) (UniProt Q8WV22)
T2 sequence: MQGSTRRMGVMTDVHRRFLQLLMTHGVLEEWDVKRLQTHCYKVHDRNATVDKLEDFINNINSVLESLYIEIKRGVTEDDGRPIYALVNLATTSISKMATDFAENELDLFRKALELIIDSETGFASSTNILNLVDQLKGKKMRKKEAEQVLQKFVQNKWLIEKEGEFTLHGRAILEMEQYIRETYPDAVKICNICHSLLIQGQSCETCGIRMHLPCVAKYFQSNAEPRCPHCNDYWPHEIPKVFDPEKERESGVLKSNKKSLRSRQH

Flag-SMC5 (human) = Flag-SMC5 (human) (UniProt Q8IY18)

Measured: binding

B1: HA-NSE4 (from pCAGGS-HA-NSE4) (protein, UniProt Q9NXX6 1-385)
chain: MSGDSSGRGPEGRGRGRDPHRDRTRSRSRSRSPLSPRSRRGSARERREAPERPSLEDTEPSDSGDEMMDPASLEAEADQGLCRQIRHQYRALINSVQQNREDILNAGDKLTEVLEEANTLFNEVSRAREAVLDAHFLVLASDLGKEKAKQLRSDLSSFDMLRYVETLLTHMGVNPLEAEELIRDEDSPDFEFIVYDSWKITGRTAENTFNKTHTFHFLLGSIYGECPVPKPRVDRPRKVPVIQEERAMPAQLRRMEESHQEATEKEVERILGLLQTYFREDPDTPMSFFDFVVDPHSFPRTVENIFHVSFIIRDGFARIRLDQDRLPVIEPVSINEENEGFEHNTQVRNQGIIALSYRDWEEIVKTFEISEPVITPSQRQQKPSA
binds: all assays above

From publication PMC6206484
